Assay results reported in the supplement of paper PMC8728848.
The list shows a part of the results.

Tests used:
Assay in all cases: glycan array binding signal (z-score within array); higher = stronger binding
Conditions in all cases: glycan notation: IUPAC condensed, linker removed
[1] = molecular target: Neu5Ac(a2-6)GlcNAc(b1-4)GlcNAc
Procedure, shortened: (§1)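 Glycan array data were curated from 3228 arrays in the Consortium for Functional Glycomics database and kept only where the protein sequence was available. Glycan names were converted to IUPAC-condensed notation, and columns mapping to the same glycan were averaged. The binding signal is a within-array Z-score, averaged across arrays of the same protein sequence at different concentrations or buffers and across linkers. Negative Z-scores can be read as non-binding.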

[2] = molecular target: Neu5Ac(a2-6)GlcNAc(b1-4)GlcNAc(b1-4)GlcNAc
Procedure, shortened: as §1

[3] = molecular target: Neu5Ac(a2-8)Neu5Ac
Procedure, shortened: as §1

[4] = molecular target: Neu5Ac(a2-8)Neu5Ac(a2-3)Gal(b1-3)GalNAc(b1-4)[Neu5Ac(a2-3)]Gal(b1-4)Glc
Procedure, shortened: as §1

[5] = molecular target: Neu5Ac(a2-8)Neu5Ac(a2-3)Gal(b1-3)GalNAc(b1-4)[Neu5Ac(a2-8)Neu5Ac(a2-3)]Gal(b1-4)Glc
Procedure, shortened: as §1

[6] = molecular target: Neu5Ac(a2-8)Neu5Ac(a2-3)Gal(b1-4)Glc
Procedure, shortened: as §1

[7] = molecular target: Neu5Ac(a2-8)Neu5Ac(a2-3)Gal(b1-4)GlcNAc
Procedure, shortened: as §1

[8] = molecular target: Neu5Ac(a2-8)Neu5Ac(a2-3)[Gal(b1-3)GalNAc(b1-4)]Gal(b1-4)Glc
Procedure, shortened: as §1

[9] = molecular target: Neu5Ac(a2-8)Neu5Ac(a2-3)[GalNAc(b1-4)]Gal(b1-4)Glc
Procedure, shortened: as §1

[10] = molecular target: Neu5Ac(a2-8)Neu5Ac(a2-8)Neu5Ac
Procedure, shortened: as §1

[11] = molecular target: Neu5Ac(a2-8)Neu5Ac(a2-8)Neu5Ac(a2-3)Gal(b1-4)Glc
Procedure, shortened: as §1

[12] = molecular target: Neu5Ac(a2-8)Neu5Ac(a2-8)Neu5Ac(a2-3)[Gal(b1-3)GalNAc(b1-4)]Gal(b1-4)Glc
Procedure, shortened: as §1

[13] = molecular target: Neu5Ac(a2-8)Neu5Ac(a2-8)Neu5Ac(a2-3)[GalNAc(b1-4)]Gal(b1-4)Glc
Procedure, shortened: as §1

[14] = molecular target: Neu5Ac(a2-8)Neu5Ac(a2-8)Neu5Ac(a2-8)Neu5Ac(a2-3)[GalNAc(b1-4)]Gal(b1-4)Glc
Procedure, shortened: as §1

[15] = molecular target: Neu5Ac(a2-8)Neu5Gc(a2-3)Gal(b1-4)GlcNAc
Procedure, shortened: as §1

[16] = molecular target: Neu5Ac(b2-6)Gal(b1-4)GlcNAc
Procedure, shortened: as §1

[17] = molecular target: Neu5Ac(b2-6)GalNAc
Procedure, shortened: as §1

[18] = molecular target: Neu5Ac9Ac(a2-3)Gal(b1-3)GlcNAc
Procedure, shortened: as §1

[19] = molecular target: Neu5Ac9Ac(a2-3)Gal(b1-4)GlcNAc
Procedure, shortened: as §1

[20] = molecular target: Neu5Ac9Ac(a2-6)Gal(b1-4)GlcNAc
Procedure, shortened: as §1

[21] = molecular target: Neu5Gc(a2-3)Gal(b1-3)GlcNAc
Procedure, shortened: as §1

[22] = molecular target: Neu5Gc(a2-3)Gal(b1-3)[Fuc(a1-4)]GlcNAc
Procedure, shortened: as §1

[23] = molecular target: Neu5Gc(a2-3)Gal(b1-4)Glc
Procedure, shortened: as §1

[24] = molecular target: Neu5Gc(a2-3)Gal(b1-4)GlcNAc
Procedure, shortened: as §1

[25] = molecular target: Neu5Gc(a2-3)Gal(b1-4)GlcNAc(b1-3)Gal(b1-4)GlcNAc(b1-2)Man(a1-3)[Neu5Gc(a2-3)Gal(b1-4)GlcNAc(b1-3)Gal(b1-4)GlcNAc(b1-2)Man(a1-6)]Man(b1-4)GlcNAc(b1-4)GlcNAc
Procedure, shortened: as §1

[26] = molecular target: Neu5Gc(a2-3)Gal(b1-4)[Fuc(a1-3)]GlcNAc
Procedure, shortened: as §1

[27] = molecular target: Neu5Gc(a2-6)Gal(b1-4)GlcNAc
Procedure, shortened: as §1

[28] = molecular target: Neu5Gc(a2-6)GalNAc
Procedure, shortened: as §1

[29] = molecular target: Neu5Gc(a2-8)Neu5Ac(a2-3)Gal(b1-4)GlcNAc
Procedure, shortened: as §1

[30] = molecular target: Neu5Gc(a2-8)Neu5Gc(a2-3)Gal(b1-4)GlcNAc
Procedure, shortened: as §1

[31] = molecular target: Neu5Gc(a2-8)Neu5Gc(a2-3)Gal(b1-4)GlcNAc(b1-3)Gal(b1-4)GlcNAc
Procedure, shortened: as §1

[32] = molecular target: Neu5Gc(a2-8)Neu5Gc(a2-6)Gal(b1-4)GlcNAc
Procedure, shortened: as §1

[33] = molecular target: Neu5Gc(b2-6)Gal(b1-4)GlcNAc
Procedure, shortened: as §1

B1: BT4246 (Bacteroides thetaiotaomicron), Q89ZX5 (protein)
chain: MGSSHHHHHHENLYFQGHMASDYLDVVPPEQPNIDDAMSSPTRALGFLYSCYGGVSTDLPSAYLGEINSTTDEYVLPYSWNTDGYWGAYAFNTASSTNQDWLWGTTYQYIGQCYLFLQKLENAGSDIASDAEKEQWRAECQFLVAYYHFATLRRYGPIPITDSYIPMDTPTSEYNGRFHFDYCVDWIANQLDEAAKVLPANRTVTNEWGRATSTIAKAVKARLLLYAASPLWNGSFPYPNWQNENFETPGYGKALVSNTYDKSKWERALAACQEALTLATTSGDRELYDDDEYYSRQSLNLPFVPGVADVEDNKEFLKNVMKMRYAVSTRESEGNKEIIWGLSNQFDFYSRYPLRILKKSDGTWHAGYSGVSPTLYTFEHFYTANGKLPEKDLDFTPSSEWFESAGISSREDIIKLNVGREPRFYAWMAFDGGDYGTKFAAGSPLKLEMRNSEMHGYNPSLFNRDHSVTGFLTQKFVDPVTEFYTAGGSTSGTSAPTILFRLAELYLNVAECHAALGNTQEAIDALNPVRERAGIPKLTLADITNNMTIKDWVHNERFVELWNEGHRFFDVRRWAEGAKYFGANKREGLNAEVQSPTFEEFNKRTTVDAPYVWENRMYLNPVFYNEVYKNPQMVQAPGY
glycan array binding signal (z-score) [1]: -1.36
glycan array binding signal (z-score) [2]: -0.187
glycan array binding signal (z-score) [3]: -0.727
glycan array binding signal (z-score) [4]: 1.96
glycan array binding signal (z-score) [5]: -1.24
glycan array binding signal (z-score) [6]: 0.166
glycan array binding signal (z-score) [7]: 0.023
glycan array binding signal (z-score) [8]: -1.1
glycan array binding signal (z-score) [9]: 0.954
glycan array binding signal (z-score) [10]: 0.853
glycan array binding signal (z-score) [11]: 0.149
glycan array binding signal (z-score) [12]: -2.07
glycan array binding signal (z-score) [13]: 0.348
glycan array binding signal (z-score) [14]: 0.565
glycan array binding signal (z-score) [15]: -0.408
glycan array binding signal (z-score) [16]: -1.7
glycan array binding signal (z-score) [17]: -1.18
glycan array binding signal (z-score) [18]: -0.322
glycan array binding signal (z-score) [19]: 0.618
glycan array binding signal (z-score) [20]: -0.498
glycan array binding signal (z-score) [21]: -0.076
glycan array binding signal (z-score) [22]: 0.355
glycan array binding signal (z-score) [23]: 0.221
glycan array binding signal (z-score) [24]: -0.262
glycan array binding signal (z-score) [25]: 2.77
glycan array binding signal (z-score) [26]: 0.152
glycan array binding signal (z-score) [27]: 0.039
glycan array binding signal (z-score) [28]: -0.37
glycan array binding signal (z-score) [29]: 0.762
glycan array binding signal (z-score) [30]: -1.35
glycan array binding signal (z-score) [31]: -0.182
glycan array binding signal (z-score) [32]: -0.659
glycan array binding signal (z-score) [33]: -0.769
